# Earlier results in article PMC7821884, “BRAF inhibition protects against hearing loss in mice” (Science Advances, 2020).
# System: P3-P4 FVB mouse cochlear explants
# Parameters: method as in PMID 29514916, PMID 9303151
# Conditions: identical P3 FVB explant model; read-out: IC50, protection from cisplatin in explants; cited from earlier work
smiles,measurement,value
"O=S([O-])([O-])=S.[Na+].[Na+] [STS, sodium thiosulfate]",IC50,2.1 µM
